According to article PMC2813880:
These are yes or no findings as the source states them, for the method shown. Binding seen in cells or lysates may run through a third protein. Some results given as binding are weak or reduced against the parent protein; the word gives no strength. One block for each substance: values may come before it.

Sequences of proteins named here, by UniProt entry; tags and fusion partners are left off. A change or cut given only in a name is not applied to a line headed by its entry. A line that says so, or that is headed by a name, gives the form on record, which may keep a tag or linker.
UniProt O00303: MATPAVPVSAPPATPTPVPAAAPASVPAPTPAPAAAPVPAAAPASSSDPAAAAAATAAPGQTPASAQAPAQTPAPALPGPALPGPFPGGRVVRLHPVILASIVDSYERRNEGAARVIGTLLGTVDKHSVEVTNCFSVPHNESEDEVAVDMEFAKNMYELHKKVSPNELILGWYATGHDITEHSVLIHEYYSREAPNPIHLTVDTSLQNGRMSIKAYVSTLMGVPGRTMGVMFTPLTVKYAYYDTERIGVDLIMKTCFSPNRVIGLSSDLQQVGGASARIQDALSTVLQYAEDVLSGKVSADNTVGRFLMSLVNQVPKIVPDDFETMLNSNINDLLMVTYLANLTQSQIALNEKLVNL
UniProt Q8BSK8: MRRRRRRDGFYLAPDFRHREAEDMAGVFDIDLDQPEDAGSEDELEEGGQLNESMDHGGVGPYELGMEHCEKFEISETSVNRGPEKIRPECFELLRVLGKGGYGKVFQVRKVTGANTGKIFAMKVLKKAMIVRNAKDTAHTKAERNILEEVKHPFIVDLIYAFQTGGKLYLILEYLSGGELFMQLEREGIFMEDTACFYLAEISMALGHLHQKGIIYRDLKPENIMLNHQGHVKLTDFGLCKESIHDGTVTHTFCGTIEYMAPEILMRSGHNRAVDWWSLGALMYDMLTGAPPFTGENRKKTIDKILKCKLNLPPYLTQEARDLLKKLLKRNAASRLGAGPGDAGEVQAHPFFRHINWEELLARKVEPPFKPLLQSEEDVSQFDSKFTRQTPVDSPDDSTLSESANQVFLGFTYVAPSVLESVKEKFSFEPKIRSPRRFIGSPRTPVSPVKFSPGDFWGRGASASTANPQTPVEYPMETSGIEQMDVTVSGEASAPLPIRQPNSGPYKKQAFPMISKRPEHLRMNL
UniProt Q8N122: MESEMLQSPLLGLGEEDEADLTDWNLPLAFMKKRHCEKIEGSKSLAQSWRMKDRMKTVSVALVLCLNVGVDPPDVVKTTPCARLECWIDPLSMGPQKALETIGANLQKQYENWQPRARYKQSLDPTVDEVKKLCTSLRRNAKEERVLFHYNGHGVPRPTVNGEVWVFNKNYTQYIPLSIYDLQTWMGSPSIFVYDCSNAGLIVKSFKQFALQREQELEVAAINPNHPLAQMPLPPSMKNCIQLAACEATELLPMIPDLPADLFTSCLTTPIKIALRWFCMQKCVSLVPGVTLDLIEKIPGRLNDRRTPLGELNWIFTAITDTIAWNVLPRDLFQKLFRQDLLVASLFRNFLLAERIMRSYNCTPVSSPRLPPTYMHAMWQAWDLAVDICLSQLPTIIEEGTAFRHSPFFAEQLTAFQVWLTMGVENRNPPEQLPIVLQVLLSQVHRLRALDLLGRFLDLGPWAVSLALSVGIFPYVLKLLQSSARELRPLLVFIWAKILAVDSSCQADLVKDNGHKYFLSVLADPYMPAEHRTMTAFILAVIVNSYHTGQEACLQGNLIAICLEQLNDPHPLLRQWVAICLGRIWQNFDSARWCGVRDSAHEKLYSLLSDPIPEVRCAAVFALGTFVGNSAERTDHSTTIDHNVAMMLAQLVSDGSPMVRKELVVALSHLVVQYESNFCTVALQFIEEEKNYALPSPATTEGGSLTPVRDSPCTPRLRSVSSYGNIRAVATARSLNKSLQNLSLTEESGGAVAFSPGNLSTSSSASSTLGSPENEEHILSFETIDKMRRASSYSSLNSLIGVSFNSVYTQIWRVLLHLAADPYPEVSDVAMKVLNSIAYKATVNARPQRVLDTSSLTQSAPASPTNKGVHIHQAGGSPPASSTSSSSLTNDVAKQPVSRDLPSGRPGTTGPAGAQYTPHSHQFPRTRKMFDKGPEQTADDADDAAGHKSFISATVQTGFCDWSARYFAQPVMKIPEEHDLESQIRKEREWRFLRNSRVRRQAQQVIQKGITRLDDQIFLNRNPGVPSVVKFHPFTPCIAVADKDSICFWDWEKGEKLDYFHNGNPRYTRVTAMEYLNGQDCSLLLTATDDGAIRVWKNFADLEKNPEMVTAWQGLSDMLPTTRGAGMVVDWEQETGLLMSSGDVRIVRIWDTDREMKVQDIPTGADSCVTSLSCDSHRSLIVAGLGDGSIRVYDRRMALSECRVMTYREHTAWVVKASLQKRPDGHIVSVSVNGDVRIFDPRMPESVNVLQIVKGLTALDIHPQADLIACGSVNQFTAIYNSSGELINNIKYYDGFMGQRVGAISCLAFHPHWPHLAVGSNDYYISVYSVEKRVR
UniProt P23443: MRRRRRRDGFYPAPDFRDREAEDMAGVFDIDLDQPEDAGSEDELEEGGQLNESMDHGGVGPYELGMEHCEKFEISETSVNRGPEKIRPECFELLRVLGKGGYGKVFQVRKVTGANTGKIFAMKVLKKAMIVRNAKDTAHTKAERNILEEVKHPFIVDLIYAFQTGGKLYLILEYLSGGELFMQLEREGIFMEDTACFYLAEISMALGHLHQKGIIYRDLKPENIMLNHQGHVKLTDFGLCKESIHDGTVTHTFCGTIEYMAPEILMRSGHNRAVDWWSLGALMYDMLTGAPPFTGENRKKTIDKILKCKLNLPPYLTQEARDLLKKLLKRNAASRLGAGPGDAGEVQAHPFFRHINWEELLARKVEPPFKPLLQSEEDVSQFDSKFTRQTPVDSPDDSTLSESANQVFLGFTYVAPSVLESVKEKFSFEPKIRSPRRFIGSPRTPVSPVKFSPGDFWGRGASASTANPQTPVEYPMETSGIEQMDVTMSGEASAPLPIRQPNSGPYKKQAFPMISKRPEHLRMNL
UniProt P63073: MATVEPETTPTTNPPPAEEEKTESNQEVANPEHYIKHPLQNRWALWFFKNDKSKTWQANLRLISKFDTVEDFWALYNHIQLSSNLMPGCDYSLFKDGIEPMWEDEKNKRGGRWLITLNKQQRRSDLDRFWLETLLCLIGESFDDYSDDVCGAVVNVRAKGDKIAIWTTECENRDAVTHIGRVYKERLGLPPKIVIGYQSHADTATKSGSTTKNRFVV
UniProt Q9DCH4: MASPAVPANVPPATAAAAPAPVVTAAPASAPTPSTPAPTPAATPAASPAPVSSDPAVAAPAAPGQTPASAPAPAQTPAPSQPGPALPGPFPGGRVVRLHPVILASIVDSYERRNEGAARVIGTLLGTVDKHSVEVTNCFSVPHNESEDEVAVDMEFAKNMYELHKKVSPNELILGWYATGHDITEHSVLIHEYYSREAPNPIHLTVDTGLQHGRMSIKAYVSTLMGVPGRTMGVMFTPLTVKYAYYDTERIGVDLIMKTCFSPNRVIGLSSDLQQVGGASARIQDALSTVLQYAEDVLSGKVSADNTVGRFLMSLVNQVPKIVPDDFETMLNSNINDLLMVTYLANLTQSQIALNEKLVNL
HA-tagged eIF3f mutant K_(5–10)R (Q9DCH4, form named): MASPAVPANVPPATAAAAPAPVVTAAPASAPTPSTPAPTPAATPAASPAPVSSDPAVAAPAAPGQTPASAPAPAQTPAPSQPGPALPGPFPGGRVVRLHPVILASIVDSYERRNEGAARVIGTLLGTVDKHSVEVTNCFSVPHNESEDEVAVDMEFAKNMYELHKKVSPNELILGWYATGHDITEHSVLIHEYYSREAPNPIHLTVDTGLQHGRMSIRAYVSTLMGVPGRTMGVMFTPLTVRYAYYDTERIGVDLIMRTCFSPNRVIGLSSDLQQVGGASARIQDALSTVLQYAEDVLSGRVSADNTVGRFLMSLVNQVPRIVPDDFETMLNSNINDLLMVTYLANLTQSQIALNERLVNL
UniProt Q8K4Q0: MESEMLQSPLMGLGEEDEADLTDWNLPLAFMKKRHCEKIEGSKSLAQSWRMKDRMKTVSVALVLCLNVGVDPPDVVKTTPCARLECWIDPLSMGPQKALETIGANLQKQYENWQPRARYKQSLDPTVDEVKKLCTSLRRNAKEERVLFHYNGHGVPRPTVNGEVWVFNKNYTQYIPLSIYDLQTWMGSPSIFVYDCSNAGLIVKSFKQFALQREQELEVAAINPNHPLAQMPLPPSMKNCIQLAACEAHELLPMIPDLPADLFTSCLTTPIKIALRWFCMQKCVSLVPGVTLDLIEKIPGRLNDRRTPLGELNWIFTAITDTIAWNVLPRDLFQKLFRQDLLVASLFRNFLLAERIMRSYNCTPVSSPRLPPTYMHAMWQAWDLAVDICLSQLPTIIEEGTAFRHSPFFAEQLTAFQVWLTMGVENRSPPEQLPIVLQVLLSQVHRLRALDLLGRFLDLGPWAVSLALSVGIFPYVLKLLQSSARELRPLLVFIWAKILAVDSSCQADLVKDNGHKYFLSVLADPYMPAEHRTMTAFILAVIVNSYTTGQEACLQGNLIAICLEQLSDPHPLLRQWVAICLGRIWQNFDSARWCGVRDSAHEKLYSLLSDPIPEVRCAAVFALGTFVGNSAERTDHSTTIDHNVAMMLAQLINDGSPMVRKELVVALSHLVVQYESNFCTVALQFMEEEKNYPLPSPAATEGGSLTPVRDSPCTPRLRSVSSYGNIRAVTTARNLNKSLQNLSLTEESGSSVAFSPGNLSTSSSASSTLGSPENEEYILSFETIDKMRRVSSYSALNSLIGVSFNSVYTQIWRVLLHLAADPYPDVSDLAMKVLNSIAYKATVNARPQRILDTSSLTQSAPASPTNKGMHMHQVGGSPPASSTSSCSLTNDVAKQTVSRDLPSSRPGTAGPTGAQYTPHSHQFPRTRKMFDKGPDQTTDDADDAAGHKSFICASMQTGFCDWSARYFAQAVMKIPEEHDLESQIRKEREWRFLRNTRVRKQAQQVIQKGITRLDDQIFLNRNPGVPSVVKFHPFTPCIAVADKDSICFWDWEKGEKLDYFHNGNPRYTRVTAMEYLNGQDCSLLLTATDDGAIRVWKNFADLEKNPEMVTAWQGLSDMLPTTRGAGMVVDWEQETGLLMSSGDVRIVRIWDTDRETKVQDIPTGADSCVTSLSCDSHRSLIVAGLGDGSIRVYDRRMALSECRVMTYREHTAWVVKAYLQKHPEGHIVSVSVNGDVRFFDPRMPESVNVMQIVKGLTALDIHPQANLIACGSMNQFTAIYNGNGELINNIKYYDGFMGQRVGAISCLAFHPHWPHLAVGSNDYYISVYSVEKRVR

Tests used:
[1] = target: GST-eIF3f (human) (UniProt O00303); assay: pull-down; GST-eIF3f beads incubated with total cellular extracts (300 µg) of mouse primary satellite myotubes in differentiation medium (control) or starved for 3 h; immunoblot; only the target purified
[2] = target: endogenous S6K1 (mouse (endogenous in primary cultured satellite cells)) (UniProt Q8BSK8); assay: co-IP; data not shown; HA-tagged eIF3f wt or K5-10R with endogenous S6K1 in rapamycin-treated mouse primary myotubes
[3] = target: Myc-tagged raptor (UniProt Q8N122); assay: co-IP; Myc-raptor cotransfected with HA-eIF3f wt or F323A in mouse primary muscle cells, differentiated 4 days, lysed in immunoprecipitation buffer without detergent; immunoprecipitation with anti-Myc, immunoblot
[4] = target: endogenous S6K1 (mouse (endogenous in primary cultured satellite cells)) (UniProt Q8BSK8); assay: co-IP; Flag-tagged eIF3f wt and deletion mutants transfected in mouse primary cultured satellite cells; total cellular extracts immunoprecipitated with anti-S6K1 (endogenous S6K1), immunoblot
[5] = target: GST-S6K1 (unphosphorylated) (UniProt P23443); assay: pull-down; GST-S6K1 (unphosphorylated) beads (GSH-agarose) incubated with in vitro translated HA-tagged eIF3f wt or mutant K5-10R; immunoblot; only the target purified
[6] = target: eIF4E (cap-binding protein held on m7-GTP Sepharose) (mouse (endogenous in primary myotubes)) (UniProt P63073); assay: pull-down; cap pull-down: m7GTP Sepharose 4B beads with 300 µg cleared lysate of mouse primary myotubes (empty vector, HA-eIF3f wt, K5-10R, or control shRNA), 4°C overnight; Western blot
[7] = target: HA-tagged eIF3f wt (mouse) (UniProt Q9DCH4); assay: co-IP; HA-tagged eIF3f wt or K5-10R transfected in mouse primary skeletal muscle cells; extracts of 3 days differentiated myotubes immunoprecipitated with anti-HA; blots for endogenous mTOR and raptor, quantified relative to HA-eIF3f; also after 20 nM rapamycin (Figure S1, 'destabilizes')

binding [1]: binds
Substance: endogenous S6K1 (from UniProt Q8BSK8 1-525) (enzyme)

binding [2]: binds | binding [3]: binds
Substance: HA-tagged eIF3f wt (from UniProt Q9DCH4 1-361)

binding [4]: binds
Substance: Flag-tagged eIF3f deletion mutant, amino acid residues 91–221 (from UniProt O00303 91-221) (domain or fragment)

binding [5]: binds
Substance: in vitro translated HA-tagged eIF3f mutant K_(5–10)R (from UniProt Q9DCH4 1-361)

binding [4]: binds
Substance: eIF3f deletion mutant (aa1–221) (from UniProt O00303 1-221) (domain or fragment)

binding [2]: binds | binding [6]: binds
Substance: HA-tagged eIF3f mutant K_(5–10)R (from UniProt Q9DCH4 1-361)

binding [5]: binds
Substance: in vitro translated HA-tagged eIF3f wt (from UniProt Q9DCH4 1-361)

binding [7]: binds
Substance: endogenous raptor (from UniProt Q8K4Q0 1-1335)
